This experiment has as its target Flag-tagged p62 (Sequestosome 1, SQSTM1) (UniProt Q13501). The experiment is described as follows: affinity purification with mass spectrometry; HEK293T cells expressing Flag-tagged p62 or empty vector for 48 h; lysates incubated with anti-Flag affinity gels; co-immunoprecipitates digested with trypsin and analysed by mass spectrometry; three samples per group.

These are yes or no findings as the source states them, for the method shown. In cells and extracts the contact can be indirect. Here binding means that the protein was enriched with, or labelled near, the bait; the list need not be complete.

As to “TRIM25, endogenous (from UniProt Q14258 1-630)”, the binding entry is recorded as “binds”.

(Values after PMC12747965.)
